Source: paper PMC7598220
No constants are given. Whether binding was seen depends on the method and setting.

Chains of the proteins cited; added tags and fusions are not shown.
UniProt Q5TGZ0: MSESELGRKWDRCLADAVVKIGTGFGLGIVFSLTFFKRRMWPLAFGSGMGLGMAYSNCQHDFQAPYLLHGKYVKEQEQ

Tests used:
[1] = target: Mic10 (human (endogenous in HEK293)) (UniProt Q5TGZ0); test: native gel or EMSA; blue native PAGE of isolated mitochondria from WT and Mic10/Mic60-deficient HEK293 cells, solubilised with 1% digitonin; complexes immunoblotted for TMBIM5, Mic10 and Mic60
[2] = target: T1, Mic60 (human (endogenous in HEK293)) (UniProt Q16891); test: as above
T1 sequence: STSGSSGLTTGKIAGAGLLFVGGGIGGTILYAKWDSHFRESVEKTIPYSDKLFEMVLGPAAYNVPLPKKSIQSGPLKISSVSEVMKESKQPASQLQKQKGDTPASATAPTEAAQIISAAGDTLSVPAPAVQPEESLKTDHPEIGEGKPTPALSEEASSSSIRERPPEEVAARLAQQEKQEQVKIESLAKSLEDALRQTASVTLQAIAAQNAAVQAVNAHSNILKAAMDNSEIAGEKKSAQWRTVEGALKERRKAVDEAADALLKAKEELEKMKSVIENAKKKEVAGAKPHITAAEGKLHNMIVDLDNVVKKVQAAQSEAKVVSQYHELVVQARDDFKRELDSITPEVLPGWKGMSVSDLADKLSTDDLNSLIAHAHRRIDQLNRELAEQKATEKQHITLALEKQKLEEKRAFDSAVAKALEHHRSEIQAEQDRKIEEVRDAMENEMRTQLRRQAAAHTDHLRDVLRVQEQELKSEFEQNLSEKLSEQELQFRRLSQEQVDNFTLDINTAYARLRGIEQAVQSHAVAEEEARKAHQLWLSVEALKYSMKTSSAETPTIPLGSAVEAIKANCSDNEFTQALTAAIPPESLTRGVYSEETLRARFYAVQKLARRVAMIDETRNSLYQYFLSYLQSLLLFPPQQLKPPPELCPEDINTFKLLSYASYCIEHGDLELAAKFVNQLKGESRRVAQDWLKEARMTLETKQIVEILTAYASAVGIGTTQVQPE

binding [1]: no binding | binding [2]: no binding
B1: Transmembrane BAX Inhibitor-1 Motif Containing Protein 5 (TMBIM5) (protein, UniProt Q9H3K2 46-345)
chain: ATKTRIGIRRGRTGQELKEAALEPSMEKIFKIDQMGRWFVAGGAAVGLGALCYYGLGLSNEIGAIEKAVIWPQYVKDRIHSTYMYLAGSIGLTALSAIAISRTPVLMNFMMRGSWVTIGVTFAAMVGAGMLVRSIPYDQSPGPKHLAWLLHSGVMGAVVAPLTILGGPLLIRAAWYTAGIVGGLSTVAMCAPSEKFLNMGAPLGVGLGLVFVSSLGSMFLPPTTVAGATLYSVAMYGGLVLFSMFLLYDTQKVIKRAEVSPMYGVQKYDPINSMLSIYMDTLNIFMRVATMLATGGNRKK
